Experimental data published in patent publication US20110166191A1, “3-(2-amino-ethyl)-5-(3-cyclohexyl-propylidene)-thiazolidine-2,4-dione and its derivatives as multiple signaling pathway inhibitors and for the treatment of cancer” (priority 2010, published 2011).
For at least one compound, name, drawing or mass did not settle the structure.

Experiments:
[1] = tested on: B16F10 melanoma cells; test: % survival of tumor bearing mice; type: in vivo; settings: B6C3F1 mice, B16F10 melanoma cells i.p., 50 mg/kg i.p. from day 11
[2] = tested on: U937 cells; test: Cell cycle analysis (PI flow cytometry); type: cell-based; settings: 24 h
Protocol: FIG. 3. Effects of Formula II and Formula III on U937 cell cycle. Cells were treated with compounds prepared as described in Examples 4 and 8 [i.e. 3-(2-aminoethyl)-5-(3-cyclohexylpropylidene)thiazolidine-2,4-dione and 3-(2-aminoethyl)-5-(3-phenyl-propylidene)-thiazolidine-2,4-dione, respectfully] for 24 hrs, then cells were stained with PI and analyzed by flow cytometry.
After treatment of cells with test compound of varying concentrations for 24 hrs, cells were pelleted at 4° C., resuspended, fixed at 4° C. with 67% ethanol overnight, and treated on ice with a PI solution containing 3.8 mM Na citrate, 0.5 mg/mL RNase A (Sigma Chemical Co.), and 0.01 mg/mL PI (Sigma) for 3 hrs. Cell cycle analysis was performed by flow cytometry using Verity Winlist software (Topsham, Me.).

Compound: NCCN1C(=O)S/C(=C\CCc2ccccc2)C1=O [Example 8, 3-(2-aminoethyl)-5-(3-phenylpropylidene)thiazolidine-2,4-dione]
- survival rate of tumor bearing mice [1]: significantly increased the survival rate
- effect on cell cycle [2]: only moderately increased G0/G1 population and decreased S population and G2/M population
